Experimental data published in US20260124200A1, “METHOD OF TREATING NEURODEGENERATIVE DISEASES” (The Board of Trustees of the University of Illinois, priority 2022, published 2026).

Legend:
[1] = Ferrozine assay: reduction of precomplexed Fe(III) to Fe(II) under reducing conditions; format: physicochemical; details: for conversion of complexed Fe(III) to Fe(II): Fe(III) precomplexed in HEPES buffer, ferrozine and reducing agents, absorbance 562 nm; for affinity of complexation with iron: precomplexed with iron (III), strong reducing agents and ferrozine dye
[2] = DCF fluorometric assay of ROS produced by Fe(II)

SMILES	conversion of complexed Fe(III) to Fe(II) [1]	affinity of complexation with iron [1]	ROS production induced by Fe(II) ([2]; DCF probe, compared to dopamine and DFP)	dopamine oxidation / ROS production (DCF) ([2]; dopamine precomplexed with Fe(II), small molecule added after one hour)
Cc1c(O)c(=O)ccn1C [DFP, deferiprone]	robust conversion to Fe(II)	–	–	–
NCCc1ccc(O)c(O)c1 [dopamine]	robust conversion to Fe(II)	does not bind strongly to Fe(II)	–	–
CC(C)c1cccc(=O)c(O)c1 [hinokitiol]	significantly reduced the Fe(III) conversion	strong affinity to bind to Fe(III)	greatly reduced	mitigating the dopamine oxidation
